# The source gives many values for each of these; only a part stands here.
# System: cancer cell lines from the cancer cell line encyclopedia (CCLE)
# Test: Cell line profiling (CLiP) proliferation experiment
# Format: cell-based
# Set-up: ACTIVITY_AREA: scale not given here; AMAX: unit not given here
# Protocol: Compound profiling experiment and data analysis was performed as previously described. Data was imported and plotted using the Tibco Spotfire DXP application. Lines were categorized as sensitive, intermediate and refractory as follows: Amax<-40 & Inflection Point <2 ~ Sensitive, Amax>-20 & Inflection Point >10 ~ Refractory, all else were called Intermediate. Cancer Cell line HG-U133 Plus 2 data was processed and normalized as described. […] Five sets of refractory cell lines were generated from the pool of refractory cell lines trying to match the lineage composition of the set of sensitive cell lines. The limma package was used as previously described to perform the statistical comparison.
# [1] = cell line AGS, stomach, adenocarcinoma
# [2] = cell line AMO-1, haematopoietic_and_lymphoid_tissue, plasma_cell_myeloma
# [3] = cell line AN3 CA, endometrium, adenocarcinoma
# [4] = cell line BDCM, haematopoietic_and_lymphoid_tissue, acute_lymphoblastic_B_cell_leukaemia
# [5] = cell line BHY, upper_aerodigestive_tract, squamous_cell_carcinoma
# [6] = cell line BICR 6, upper_aerodigestive_tract, squamous_cell_carcinoma
# [7] = cell line BICR 16, upper_aerodigestive_tract, squamous_cell_carcinoma
# [8] = cell line BICR 22, upper_aerodigestive_tract, squamous_cell_carcinoma
# [9] = cell line BL-41, haematopoietic_and_lymphoid_tissue, Burkitt_lymphoma
# [10] = cell line BT-20, breast, ductal_carcinoma
# [11] = cell line BT-549, breast, ductal_carcinoma
# [12] = cell line BV-173, haematopoietic_and_lymphoid_tissue, blast_phase_chronic_myeloid_leukaemia
# [13] = cell line BxPC-3, pancreas, ductal_carcinoma
# [14] = cell line CAL-29, urinary_tract, transitional_cell_carcinoma
# [15] = cell line Caki-1, kidney, clear_cell_renal_cell_carcinoma
# [16] = cell line Caki-2, kidney, clear_cell_renal_cell_carcinoma
# [17] = cell line Caov-3 (ovary, adenocarcinoma)
# [18] = cell line DBTRG-05MG (central_nervous_system, astrocytoma_Grade_IV)
smiles,measurement,setting,value
CC(C)[C@@]12C[C@@H](O)[C@@](C)(O1)[C@@H]1CC[C@@H](C)[C@H]1[C@@H]2OC(=O)/C=C/c1ccccc1 [Englerin B],AMAX,[1],-69.99
same,RESPONSE,[1],INTERMEDIATE
same,ACTIVITY_AREA,[2],38.41
same,AMAX,[2],-82.44
same,RESPONSE,[2],INTERMEDIATE
same,ACTIVITY_AREA,cell line AN3 CA,72.69
same,AMAX,cell line AN3 CA,-59.95
same,RESPONSE,cell line AN3 CA,INTERMEDIATE
same,ACTIVITY_AREA,[3],72.69
same,AMAX,[3],-59.95
same,RESPONSE,[3],INTERMEDIATE
same,ACTIVITY_AREA,"cell line AU565, breast, NS",45.07
same,AMAX,"cell line AU565, breast, NS",-69.47
same,RESPONSE,"cell line AU565, breast, NS",INTERMEDIATE
same,ACTIVITY_AREA,[4],30.98
same,AMAX,[4],-76.17
same,RESPONSE,[4],INTERMEDIATE
same,ACTIVITY_AREA,cell line BFTC-909,34.39
same,AMAX,cell line BFTC-909,-23.31
same,RESPONSE,cell line BFTC-909,INTERMEDIATE
same,ACTIVITY_AREA,"cell line BFTC-909, kidney, NS",34.39
same,AMAX,"cell line BFTC-909, kidney, NS",-23.31
same,RESPONSE,"cell line BFTC-909, kidney, NS",INTERMEDIATE
same,ACTIVITY_AREA,[5],30
same,AMAX,[5],-53.57
same,RESPONSE,[5],INTERMEDIATE
same,ACTIVITY_AREA,[6],60.16
same,AMAX,[6],-61.58
same,RESPONSE,[6],INTERMEDIATE
same,ACTIVITY_AREA,[7],117.1
same,AMAX,[7],-74.26
same,RESPONSE,[7],INTERMEDIATE
same,ACTIVITY_AREA,[8],28.9
same,AMAX,[8],-66.9
same,RESPONSE,[8],INTERMEDIATE
same,ACTIVITY_AREA,[9],23.12
same,AMAX,[9],-91.54
same,RESPONSE,[9],INTERMEDIATE
same,ACTIVITY_AREA,[10],21.1
same,AMAX,[10],-41.63
same,RESPONSE,[10],INTERMEDIATE
same,ACTIVITY_AREA,cell line BT-549,85.52
same,AMAX,cell line BT-549,-59.24
same,RESPONSE,cell line BT-549,INTERMEDIATE
same,ACTIVITY_AREA,[11],85.52
same,AMAX,[11],-59.24
same,RESPONSE,[11],INTERMEDIATE
same,ACTIVITY_AREA,[12],54.37
same,AMAX,[12],-88.99
same,RESPONSE,[12],INTERMEDIATE
same,ACTIVITY_AREA,[13],22.8
same,AMAX,[13],-60.21
same,RESPONSE,[13],INTERMEDIATE
same,ACTIVITY_AREA,"cell line C32, skin, NS",19.38
same,AMAX,"cell line C32, skin, NS",-36.76
same,RESPONSE,"cell line C32, skin, NS",INTERMEDIATE
same,ACTIVITY_AREA,[14],38.07
same,AMAX,[14],-71.25
same,RESPONSE,[14],INTERMEDIATE
same,ACTIVITY_AREA,"cell line CAL-51, breast, NS",23.14
same,AMAX,"cell line CAL-51, breast, NS",-39.24
same,RESPONSE,"cell line CAL-51, breast, NS",INTERMEDIATE
same,ACTIVITY_AREA,"cell line CAL-120, breast, NS",23.97
same,AMAX,"cell line CAL-120, breast, NS",-51.61
same,RESPONSE,"cell line CAL-120, breast, NS",INTERMEDIATE
same,ACTIVITY_AREA,"cell line COLO-800 (skin, NS)",66.95
same,AMAX,"cell line COLO-800 (skin, NS)",-43.63
same,RESPONSE,"cell line COLO-800 (skin, NS)",INTERMEDIATE
same,ACTIVITY_AREA,"cell line COV504 (ovary, NS)",33.53
same,AMAX,"cell line COV504 (ovary, NS)",-45.79
same,RESPONSE,"cell line COV504 (ovary, NS)",INTERMEDIATE
same,ACTIVITY_AREA,[15],27.97
same,AMAX,[15],-31.84
same,RESPONSE,[15],INTERMEDIATE
same,ACTIVITY_AREA,[16],52.8
same,AMAX,[16],-38.65
same,RESPONSE,[16],INTERMEDIATE
same,ACTIVITY_AREA,cell line Calu-1,52.11
same,AMAX,cell line Calu-1,-42.82
same,RESPONSE,cell line Calu-1,INTERMEDIATE
same,ACTIVITY_AREA,[17],128.76
same,AMAX,[17],-55.06
same,RESPONSE,[17],INTERMEDIATE
same,ACTIVITY_AREA,[18],21.88
same,AMAX,[18],-30.64
same,RESPONSE,[18],INTERMEDIATE

# Source: article PMC4476799, “Englerin A Agonizes the TRPC4/C5 Cation Channels to Inhibit Tumor Cell Line Proliferation” (PLoS ONE, 2015)
